This note sets out measurements from patent US20030114404.

Chains of the proteins cited; added tags and fusions are not shown. A line that says so, or that is headed by a name, gives the form on record, which may keep a tag or linker.
VEGF/PlGF heterodimer, one chain, as listed by the source, chain 1 of 2: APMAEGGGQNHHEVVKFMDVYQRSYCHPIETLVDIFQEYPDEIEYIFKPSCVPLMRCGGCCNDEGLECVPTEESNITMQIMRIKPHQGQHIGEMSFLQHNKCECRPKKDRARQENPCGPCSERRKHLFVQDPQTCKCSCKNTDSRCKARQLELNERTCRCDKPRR
VEGF/PlGF heterodimer, one chain, as listed by the source, chain 2 of 2: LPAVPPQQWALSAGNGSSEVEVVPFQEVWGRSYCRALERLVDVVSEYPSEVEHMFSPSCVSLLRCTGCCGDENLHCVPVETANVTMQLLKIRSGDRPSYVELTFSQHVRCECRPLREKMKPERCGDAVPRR

For some assays here: The comparison behind a weaker result is the experiment's own reference, which may not be listed here. For some assays here: Construct, isoform or probe ends are uncertain for at least one entry. For some assays here: Results from cells or extracts need not show a direct contact.

The subject of data set [1] is VEGF/PlGF heterodimer. Briefly: filter binding. As to conditions: 2'-F pyrimidines, substantial binding but greatly reduced affinity, purified recombinant protein, protein details: E. coli-expressed, R&D Systems.
Data set [2] concerns VEGF165 (Homo sapiens). The data set can be described thus: filter binding. As to conditions: 2'-F pyrimidines, 37 C, purified recombinant protein.
Data set [3] deals with VEGF/PlGF heterodimer (Homo sapiens). Briefly: filter binding. The note with it: 2'-F pyrimidines, 2'-OMe purines except 2'-OH A4, A5; substantial binding with greatly reduced affinity; purified recombinant protein; protein details: carrier-free, E. coli expressed, R & D Systems; variant of t44a.
Data set [4] has as its system VEGF165 (Homo sapiens). The data set can be described thus: binding assay. The note with it: PS at 1-4 and 29-33; 2'-OMe at 5,13,16,17,20,23-26,28; 2'-NH2 at 6-9,12,15,19,21,22,27; two riboguanosines; T are DNA; CITED; quoted from earlier application 08/447,169; purified recombinant protein; protein details: carrier-free, Sf21-expressed, R&D Systems.
In data set [5] the test system is VEGF. The data set can be described thus: activity in cells. As to conditions: KSY-1 proliferation, HUVEC also >1 uM, protein in cells.
Data set [6] deals with VEGF165 (Homo sapiens). The data set can be described thus: competition with a labelled probe. As to conditions: competition EMSA, purified recombinant protein, protein details: carrier-free, Sf21-expressed, R&D Systems. (In general: Mobility shift assays separate free from complexed probe on a gel.)
Data set [7] has as its system VEGF. Briefly: inhibition of the protein. As to conditions: 2'-F pyrimidines, 2'-OMe at 2-3,8-9,11-13,15,19,21,23,27, 3'-3' dT at 28, purified recombinant protein, protein details: injected protein in Miles assay or corneal pellet.
The test system of data set [8] is VEGF165 (Homo sapiens). Briefly: EMSA. The note with it: PS at positions 1-4 and 29-33 (DNA T ends), 2'-OMe at 5,8-9,11,14,16,18,23,26,28, 2'-NH2 at 6-7,10,12,17,21-22,24-25,27; competition EMSA; scrambled control, substantially lower affinity than NX213; purified recombinant protein.

In the case of GCGGUAGGAAGAAUUGGAAGCGC [t22-OMe], in data set [1] (2'-OMe purines except 2'-OH G4 and A6), the binding result is listed as “binds more weakly”.

As for GGCGAACCGAUGGAAUUUUUGGACGCUCGCC [t2], the dissociation constant Kd – broadly, a measure of binding affinity in units of concentration – in data set [2] (N32 = 3'-3' inverted dT [32 = 3'-3' inverted dT, all C/U at 1-31 = 2'-F], letters built from the parent sequence and the stated change, variant of VP30.2) stood at 0.02 nM.

With CGGAAUCAGUGAAUGCUUAUACAUCCG [t44-OMe], the binding result in data set [3] was “binds more weakly”.

Turning to “TTTTACCCUGAUGGUAGACGCCGGGGUGTTTTT [NX213]”, in data set [4], the Kd worked out at 0.14 nM. For the same sequence, in data set [5] (PS at 1-4 and 29-33, 2'-OMe at 5,13,16,17,20,23-26,28, 2'-NH2 at 6-9,12,15,19,21,22,27, two riboguanosines, T are DNA), the IC50 (usually the concentration that inhibits the measured activity by half) is above 1000 nM.

As to AUCAGUGAAUGCUUAUACA [t44e], in data set [2] (N20 = 3'-3' inverted dT [20 = 3'-3' inverted dT (N replaced by T), 2'-F pyrimidines at 2,3,6,10,12,13,14,16,18], letters built from the parent sequence and the stated change, variant of VT30.44), the Kd was above 100 nM.

Turning to GCGAACCGAUGGAAUUUUUGGACGCUCGC [t2-OMe], in data set [1] (2'-OMe purines except 2'-OH A5 and G20), the binding result is recorded as “binds more weakly”.

In the case of GUAGGAAGAAUUGGAAGCGC [t22f], in data set [2] (N21 = 3'-3' inverted dT [21 = 3'-3' inverted dT, all C/U at 1-20 = 2'-F], letters built from the parent sequence and the stated change, variant of VP30.22), the Kd was above 100 nM.

On to GGUAGGAAGAAUUGGAAGCGC [t22e], for which the dissociation constant Kd in data set [2] (N22 = 3'-3' inverted dT [22 = 3'-3' inverted dT, all C/U at 1-21 = 2'-F], letters built from the parent sequence and the stated change, variant of VP30.22) stood at 0.2 nM.

In the case of “TTTTACCCUGAUGGUAGACGCCGGGGUGTTTTT [NX278]”, the binding result in data set [6] (as NX213 plus 1,2-di-O-octadecyl-sn-glycerol lipid, PS at 1-4 and 29-33, 2'-OMe at 5,13,16,17,20,23-26,28, 2'-NH2 at 6-9,12,15,19,21,22,27, affinity comparable to NX213, variant of NX213) was “binds”.

Take “GGGAGGACGAUGCGGCAGUUAAUUAAUUUGAGUUGUGAUGUGUGUCGUUAUGGGUCAGACGACUCGCCCGA [VP40.21]”: the dissociation constant Kd in data set [2] was above 100 nM.

As for “CGGAAUCAGUGAAUGCUUAUACAUCCGT [NX31838-40K PEG]”, in data set [7] (40K PEG, Miles assay, blocks leakage down to 100 nM, lost at 30 nM, corneal angiogenesis reduced 65-70%), the “functional effect of the aptamer” value was “active”.

Take “GCGGAAUCAGUGAAUGCUUAUACAUCCGC [t44OMe (OH-5)]”: in data set [2] (2'-OMe purines except 2'-OH A5, variant of t44), the dissociation constant Kd was above 100 nM.

For the sequence “TTTTGUCGGUACGGAGUGGACCGUCACGTTTTT [scNX278]”, the binding result in data set [6] (PS at 1-4 and 29-33, 2'-OMe at 5,8-9,11,14,16,18,23,26,28, 2'-NH2 at 6-7,10,12,17,21-22,24-25,27, dialkylglycerol lipid, scrambled control, substantially lower affinity, variant of NX278) is on record as “binds more weakly”.

In the case of “CGGAAUCAGUGAAUGCUUAUACAUCCGT [NX31838-20K PEG]”, in data set [7] (20K PEG, Miles assay in guinea pig, blocks vascular leakage down to 100 nM, lost at 30 nM, ineffective in corneal angiogenesis), the “functional effect of the aptamer” value is “active”.

In the case of ACCGAUGGAAUUUUUGGACGC [t2e], the equilibrium dissociation constant (Kd) in data set [2] (N22 = 3'-3' inverted dT [22 = 3'-3' inverted dT (N replaced by T), 2'-F pyrimidines at 2,3,6,11,12,13,14,15,19,21], letters built from the parent sequence and the stated change, variant of VP30.2) was above 100 nM.

“CGGAAUCAGUGAAUGCUUAUACAUCCGT [NX31838-PL liposome]”: the “functional effect of the aptamer” value in data set [7] (phospholipid, liposomal, Miles assay, reduced blocking at 100 nM, corneal angiogenesis reduced 65-70%) is on record as “active”.

In the case of AAUCAGUGAAUGCUUAUACAU [t44d], in data set [2] (N22 = 3'-3' inverted dT [22 = 3'-3' inverted dT (N replaced by T), 2'-F pyrimidines at 3,4,7,11,13,14,15,17,19,21], letters built from the parent sequence and the stated change, variant of VT30.44), the Kd was above 100 nM.

Regarding GAAUCAGUGAAUGCUUAUACAUC [t44c], the equilibrium dissociation constant (Kd) in data set [2] (N24 = 3'-3' inverted dT [24 = 3'-3' inverted dT (N replaced by T), 2'-F pyrimidines at 4,5,8,12,14,15,16,18,20,22,23], letters built from the parent sequence and the stated change, variant of VT30.44) was found to be 2 nM.

Consider “TTTTGUCGGUACGGAGUGGACCGUCACGTTTTT [scNX213]”, for which the binding result in data set [8] is listed as “binds more weakly”.

Turning to “GCGGAAUCAGUGAAUGCUUAUACAUCCGC [t44OMe (OH-6)]”, in data set [2] (2'-OMe purines except 2'-OH A6, variant of t44), the Kd was above 100 nM.

In the case of “TTTTGUCGGUACGGAGUGGACCGUCACGTTTTT [scNX278-Liposome]”, in data set [6] (scNX278 embedded in DSPC:cholesterol liposome, scrambled control, substantially lower affinity, variant of NX278-Liposome), the binding result is on record as “binds more weakly”. The sequence also registered an IC50 in data set [5] (scNX278 embedded in DSPC:cholesterol liposome, scrambled control, variant of NX278-Liposome) above 1000 nM.
